Some entries share one result that the patent states for a list of compounds.
What follows are compounds tested on Chinese hamster ovary (CHO) cells (assay: In vitro transfection of CHO cells with pEGFP-C1 plasmid and DOTAP liposomes plus disaccharides, GFP by flow cytometer). Details: DOTAP liposomes, 180 mM disaccharide, 28% without disaccharide.
Format: cell-based
Text: FIG. 2 present the effects of disaccharides on the transgene expression of cultured Chinese hamster ovary (CHO) cells subjected to an in vitro transfection of DNA with a transfection reagent containing DOTAP and various disaccharides. The x-axis in FIG. 2 refers to the disaccharide concentration in the transfection reagent, and the y-axis in FIG. 2 represents the GFP (green fluorescent protein)-positive percentage of the transfected CHO cells measured by a flow cytometer. The GFP-positive percentage of the CHO cells is used as an indicator of transfection efficiency. In the experiments shown in FIG. 2, various concentrations of cellobiose, lactose, sucrose, trehalose and maltose are respectively incorporated into a transfection reagent containing pEGFP-C1 plasmid and DOTAP liposomes, and in vitro transfections are performed with the transfection reagents containing different disaccharides. The GFP-positive percentage of CHO cells is then detected for each transfection reagent sample. […] In other words, the incorporation of a disaccharide into the transfection reagent affects the transfection efficiency. Moreover, the changes in transfection efficiency are related to the type and the concentration of the disaccharide in the transfection reagent. […] More particularly, the transfection efficiency increases from 28% to more than 40% at 180 mM of lactose, sucrose or trehalose in a transfection reagent. The transfection efficiency is doubled when 120 mM of cellobiose is incorporated into a transfection reagent.

Row | SMILES | GFP-positive percentage of the transfected CHO cells (transfection efficiency)
1 | OC[C@H]1O[C@@H](O[C@H]2[C@H](O)[C@@H](O)C(O)O[C@@H]2CO)[C@H](O)[C@@H](O)[C@H]1O (stereo partly drawn) [lactose] | more than 40%
2 | OC[C@H]1O[C@@](CO)(O[C@H]2O[C@H](CO)[C@@H](O)[C@H](O)[C@H]2O)[C@@H](O)[C@@H]1O [sucrose] | more than 40%
3 | OC[C@H]1O[C@H](O[C@H]2O[C@H](CO)[C@@H](O)[C@H](O)[C@H]2O)[C@H](O)[C@@H](O)[C@@H]1O [trehalose] | more than 40%
